Earlier results on one molecule are cited in patent US11846224B2, “Urea removing apparatus” (ISUZU MOTORS LIMITED, priority 2022, dated 2023).

For the series the following is noted: in water at 80° C.

For `NC(N)=O` [urea], the “aqueous solubility of urea” value was 400 g/100 ml.
